Our source for the binding values is patent publication US20240342302A1, “DEGRADER-ANTIBODY CONJUGATES AND METHODS OF USING SAME” (Angiex, Inc., priority 2021, published 2024).

T1: transmembrane-4 L six family member-1 (TM4SF1) (human) (UniProt P30408)
T1 sequence: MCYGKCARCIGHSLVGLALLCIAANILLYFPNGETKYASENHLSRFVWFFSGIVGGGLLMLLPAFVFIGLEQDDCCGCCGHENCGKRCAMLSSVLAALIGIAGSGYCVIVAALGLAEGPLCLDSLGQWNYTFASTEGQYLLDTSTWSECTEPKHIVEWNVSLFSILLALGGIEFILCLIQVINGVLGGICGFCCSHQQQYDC

B1: murine monoclonal antibody AGX-A08 (antibody, V domains shown)
VH: EVQLQQSGPELVKPGASVKLSCKASGYTVTSYVMHWVKQKPGQGLEWIGYINPYSDVTNCNEKFKGKATLTSDKTSSTAYMELSSLTSEDSAVYYCSSYGGGFAYWGQGTLVTVSA
VL: DIQMTQSPASLSASVGEPVTITCRASKNIYTYLAWYHQKQGKSPQFLVYNARTLAGGVPSRLSGSGSVTQFSLNINTLHREDLGTYFCQHHYDTPYTFGGGTNLEIK
B2: murine monoclonal antibody AGX-A09 (antibody, V domains shown)
VH: EVQLQQSGPELVKPGASVKMSCKASGYTFSSYVMHWVKQKPGQGLEWIGYINPYSDVTNYNEKFKGKATLTSDRSSNTAYMELSSLTSEDSAVYYCARNYFDWGRGTLVTVSA
VL: DIQMTQSPASLSASVGETVTITCRASKNVYSYLAWFQQKQGKSPQLLVYNAKTLAEGVPSRFSGGGSGTQFSLKINSLQPADFGSYYCQHHYNIPFTFGSGTKLEIK
B3: murine monoclonal antibody AGX-A05 (antibody, V domains shown)
VH: EVQVQQSGPELVKPGASVKMSCKASGYTFTSYVMHWVKQKPGQGLEWIGYINPNNDNINYNEKFKGKASLTSDKSSNTVYMELSSLTSEDSAVYYCAGYGNSGANWGQGTLVTVSA
VL: DIQMTQSPASLSASVGETVTITCRTSKNIFNFLAWYHQKQGRSPRLLVSHTKTLAAGVPSRFSGSGSGTQFSLKINSLQPEDFGIYYCQHHYGTPWTFGGGTKLEIK
B4: murine monoclonal antibody AGX-A04 (antibody, V domains shown)
VH: EVQLQQSGPELVKPGASVKISCKTSGYTFTDYTMHWVRQSHGKSLEWIGSFNPNNGGLTNYNQKFKGKATLTVDKSSSTVYMDLRSLTSEDSAVYYCTRIRATGFDSWGQGTTLTVSS
VL: DIVMSQSPSSLAVSAGEKVTMSCKSSQSLLNSRTRKNYLAWYQQKPGQSPKLLIYWASTRESGVPDRFTGSGSGTDFTLTISNVQAEDLTVYYCKQSYNPPWTFGGGTKLEIK
B5: murine monoclonal antibody AGX-A03 (antibody, V domains shown)
VH: QIQLVQSGPELKKPGETVKISCKASGYSFRDYGMNWVKQAPGRTFKWMGWINTYTGAPVYAADFKGRFAFSLDTSASAAFLQINNLKNEDTATYFCARWVSYGNNRNWFFDFWGAGTTVTVSS
VL: DVLMTQTPLSLPVRLGDQASISCRSSQTLVHSNGNTYLEWYLQKPGQSPKLLIYKVSNRLSGVPDRFSGSGSGTDFTLKISRVETEDLGVYYCFQGSHGPWTFGGGTKLEIK
B6: murine monoclonal antibody AGX-A07 (antibody, V domains shown)
VH: QIQLVQSGPELKKPGETVKISCKASGYTFTNYGVKWVKQAPGKDLKWMGWINTYTGNPIYAADFKGRFAFSLETSASTAFLQINNLKNEDTATYFCVRFQYGDYRYFDVWGAGTTVTVSS
VL: QIILSQSPAILSASPGEKVTMTCRANSGISFINWYQQKPGSSPKPWIYGTANLASGVPARFGGSGSGTSYSLTISRVEAEDAATYYCQQWSSNPLTFGAGTKLELR

Results are given in words; binding and its absence hold for the method and conditions named. Some results given as binding are weak or reduced against the parent protein; the word gives no strength.

The assay addresses T1, transmembrane-4 L six family member-1 (TM4SF1) (human). The assay can be described thus: screen, method not described.
For B1, the binding result is “binds”.
With B2, the binding entry is given as “binds”.
The same measure for B3: “binds”.
In the case of B4, the binding result was “binds”.
Under B5 stands “binds”.
Turning to B6, the binding entry is given as “binds”.
